Measured values: patent US20130245238A1
No constants are given. Whether binding was seen depends on the method and setting. Some binding calls cover weakened binding; strength is not graded here. For some assays here: Where a sequence is shown, tags or fusion partners need not be part of it.

T1: biotinylated murine IL-17 (murine) (UniProt Q62386)
T1 sequence (biotinylated (site not stated), looked up): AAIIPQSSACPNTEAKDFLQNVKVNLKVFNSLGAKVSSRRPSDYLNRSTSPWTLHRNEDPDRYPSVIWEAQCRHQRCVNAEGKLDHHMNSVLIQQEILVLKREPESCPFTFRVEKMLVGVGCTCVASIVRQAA

T2: human PXR-GST (Invitrogen) (human) (UniProt O75469)
T2 sequence (looked up): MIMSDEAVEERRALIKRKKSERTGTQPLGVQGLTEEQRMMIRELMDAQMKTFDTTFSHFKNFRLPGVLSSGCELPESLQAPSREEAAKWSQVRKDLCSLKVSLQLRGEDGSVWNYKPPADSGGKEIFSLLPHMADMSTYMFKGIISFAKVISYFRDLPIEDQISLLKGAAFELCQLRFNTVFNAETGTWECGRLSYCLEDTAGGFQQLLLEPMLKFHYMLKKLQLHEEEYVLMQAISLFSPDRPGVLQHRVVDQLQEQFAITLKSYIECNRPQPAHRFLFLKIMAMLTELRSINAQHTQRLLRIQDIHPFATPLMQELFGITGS

B1: WS-LI1 binder having the sequence of SEQ ID NO: 45 (designed binder)
chain: MGVSDVPRDLEVVAATPTSLLISWDAPAVTVRYYRITYGEYHAFFASNGKYYFYIQEFTVPGSKSTATISGLKPGVDYTITVYAVTDDTVHHGDSNYHSSKPISINYRTEIDKPSQ
B2: WS-LI1 binder having the sequence of SEQ ID NO: 46 (designed binder)
chain: MGVSDVPRDLEVVAATPTSLLISWDAPAVTVRYYRITYGEYSSFFQHQGQYYHYIQEFTVPGSKSTATISGLKPGVDYTITVYAVTQHEHSQDSSKPISINYRTEIDKPSQ
B3: WS-LI1 binder having the sequence of SEQ ID NO: 47 (designed binder)
chain: MGVSDVPRDLEVVAATPTSLLISWDAPAVTVRYYRITYGEFSQFVHSDGEYYQEYQEFTVPGSKSTATISGLKPGVDYTITVYAVTGQYDQDDEPSSKPISINYRTEIDKPSQ
B4: WS1 binder having the amino acid sequence of SEQ ID NO: 48 (designed binder)
chain: MASTSGVSDVPRDLEVVAATPTSLLISWDAPAVPVSKYVIYYWPGALISSMQAFKVPGSKSTATISGLKPGVLYSIVVDALTGDGQGSYVWDPITITYRTEGSGS
B5: WS1 binder having the amino acid sequence of SEQ ID NO: 49 (designed binder)
chain: MASTSGVSDVPRDLEVVAATPTSLLISWDAPAVTVHSYYITYQELQHHSVPQGFQVPGSKSTATISGLKPGVAYQIAVYAFTGPGLPPSDAPPIVIYYRTEGSGS

Experiments:
[1] = target: T1, biotinylated murine IL-17 (murine); test: competitive Alphascreen
[2] = target: T2, human PXR-GST (Invitrogen) (human); test: Biacore; GST-PXR captured on anti-GST antibody

Binder | binding [1] | binding [2]
B1 | binds | 
B2 | binds | 
B3 | binds | 
B4 |  | binds
B5 |  | binds
